Taken from: PubChem BioAssay AID1259308 (NCATS, 2017)

Screen: 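Genes whose loss raises luciferase production in HEK293 cells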 (primary screen)
Cells: human HEK293 embryonic kidney cells stably expressing firefly luciferase (HEK-CMV-Luc2-Hygro)
Reagents: single siRNA against human genes, 0.8 pmol siRNA per well
Duration: 72 h
Detection: 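Reporter luminescence and viable-cell signal on separate replicate plates, given as percent of non-targeting control and median/MAD z-scores, plus per-cell luciferase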
Reading the numbers: total luciferase, z-score: higher = more reporter protein produced
Hit rule: 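An siRNA counts as active if its total luciferase robust z-score exceeds 3; genes with two or more such siRNAs out of three were retested with fresh siRNAs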
Meaning of the calls: active = raised luciferase; inactive = no rise
The whole screen tested about 59,000 reagents; below is a part drawn at random. Over the whole deposit, about 1,510 (2.6%) got an active call. 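Calls use total luciferase alone and ignore viability, so some active siRNAs may act by altering cell number.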 The numbers tell different reagents against one gene apart. Not all columns of the deposit are shown.

With knock-down of NASP (nuclear autoantigenic sperm protein) #1 the results were total luciferase, z-score 3.05; active.
Depletion of NASP (nuclear autoantigenic sperm protein) #2 resulted in: total luciferase, z-score -1.63; inactive.
After knock-down of NASP (nuclear autoantigenic sperm protein) #3, the record shows total luciferase, z-score 1.39; inactive.
With knock-down of GGCT (gamma-glutamylcyclotransferase) #1, the screen gave total luciferase, z-score 0.425; inactive.
GGCT (gamma-glutamylcyclotransferase) #2 scored total luciferase, z-score 0.419; inactive.
With knock-down of GGCT (gamma-glutamylcyclotransferase) #3, the record shows total luciferase, z-score -0.566; inactive.
Against ZFP69B (ZFP69 zinc finger protein B) #1 the deposit lists total luciferase, z-score 0.675; inactive.
Knock-down of ZFP69B (ZFP69 zinc finger protein B) #2 came out at: total luciferase, z-score -0.554; inactive.
Depletion of ZFP69B (ZFP69 zinc finger protein B) #3 resulted in: total luciferase, z-score 0.644; inactive.
Against SPTSSB (serine palmitoyltransferase small subunit B) #1 the deposit lists total luciferase, z-score -1.13; inactive.
Knock-down of SPTSSB (serine palmitoyltransferase small subunit B) #2 came out at: total luciferase, z-score -0.543; inactive.
SPTSSB (serine palmitoyltransferase small subunit B) #3 scored total luciferase, z-score -0.132; inactive.
With knock-down of RSPH3 (radial spoke head 3) #1, the screen gave total luciferase, z-score 0.147; inactive.
Depletion of RSPH3 (radial spoke head 3) #2 resulted in: total luciferase, z-score 0.631; inactive.
For RSPH3 (radial spoke head 3) #3 the deposit lists total luciferase, z-score 0.206; inactive.
Against MAP2K6 (mitogen-activated protein kinase kinase 6) #1, the values are total luciferase, z-score -0.947; inactive.
After knock-down of MAP2K6 (mitogen-activated protein kinase kinase 6) #2, the record shows total luciferase, z-score -0.21; inactive.
Against MAP2K6 (mitogen-activated protein kinase kinase 6) #3 the deposit lists total luciferase, z-score -1.32; inactive.
Depletion of KRT33B (keratin 33B) #1 came out at: total luciferase, z-score 2.95; inactive.
After knock-down of KRT33B (keratin 33B) #2 the results were total luciferase, z-score -0.264; inactive.
KRT33B (keratin 33B) #3 gave total luciferase, z-score -0.769; inactive.
Knock-down of B4GALT4 (beta-1,4-galactosyltransferase 4) #1 gave: total luciferase, z-score -0.417; inactive.
B4GALT4 (beta-1,4-galactosyltransferase 4) #2 scored total luciferase, z-score 4.16; active.
B4GALT4 (beta-1,4-galactosyltransferase 4) #3 gave total luciferase, z-score -0.49; inactive.
PTCD3 (pentatricopeptide repeat domain 3) #1 gave total luciferase, z-score 1.11; inactive.
Against PTCD3 (pentatricopeptide repeat domain 3) #2, the entry reads total luciferase, z-score 1.88; inactive.
PTCD3 (pentatricopeptide repeat domain 3) #3 gave total luciferase, z-score -0.182; inactive.
Silencing of CIB2 (calcium and integrin binding family member 2) #1 gave: total luciferase, z-score 0.201; inactive.
For CIB2 (calcium and integrin binding family member 2) #2 the deposit lists total luciferase, z-score -2.15; inactive.
Silencing of CIB2 (calcium and integrin binding family member 2) #3 came out at: total luciferase, z-score -1.26; inactive.
With knock-down of RRAD #1, the screen gave total luciferase, z-score 1.39; inactive.
After knock-down of RRAD #2, the record shows total luciferase, z-score 1.53; inactive.
Silencing of RRAD #3 resulted in: total luciferase, z-score -0.111; inactive.
Silencing of COMMD9 (COMM domain containing 9) #1 came out at: total luciferase, z-score -0.828; inactive.
Depletion of COMMD9 (COMM domain containing 9) #2 came out at: total luciferase, z-score 1.08; inactive.
For COMMD9 (COMM domain containing 9) #3, the values are total luciferase, z-score -1.21; inactive.
For COMMD9 (COMM domain containing 9) #4 the deposit lists total luciferase, z-score 2.24; inactive.
After knock-down of COMMD9 (COMM domain containing 9) #5 the results were total luciferase, z-score 0.237; inactive.
COMMD9 (COMM domain containing 9) #6 gave total luciferase, z-score 1.35; inactive.
RMDN1 (regulator of microtubule dynamics 1) #1 showed total luciferase, z-score -0.00206; inactive.
Silencing of RMDN1 (regulator of microtubule dynamics 1) #2 came out at: total luciferase, z-score 1.03; inactive.
For RMDN1 (regulator of microtubule dynamics 1) #3 the deposit lists total luciferase, z-score -0.532; inactive.

Looked up above:
Value for COMMD9 (COMM domain containing 9) #2 under “Call”: inactive
Entry of CIB2 (calcium and integrin binding family member 2) #1 under “Call”: inactive
RSPH3 (radial spoke head 3) #1, Call: inactive
MAP2K6 (mitogen-activated protein kinase kinase 6) #1, total luciferase, z-score = -0.947
Value of B4GALT4 (beta-1,4-galactosyltransferase 4) #2 in “Call”: active
Value of SPTSSB (serine palmitoyltransferase small subunit B) #2 under “total luciferase, z-score”: -0.543
